Reference: patent publication US20190389961A1
These are yes or no findings as the source states them, for the method shown. Some results given as binding are weak or reduced against the parent protein; the word gives no strength.

Legend:
Experiment in all cases: flow cytometry, Hek-293T cells expressing the mutant
[1] = target: T1, human CD39 mutant 9 (human) (UniProt P49961)
T1 sequence: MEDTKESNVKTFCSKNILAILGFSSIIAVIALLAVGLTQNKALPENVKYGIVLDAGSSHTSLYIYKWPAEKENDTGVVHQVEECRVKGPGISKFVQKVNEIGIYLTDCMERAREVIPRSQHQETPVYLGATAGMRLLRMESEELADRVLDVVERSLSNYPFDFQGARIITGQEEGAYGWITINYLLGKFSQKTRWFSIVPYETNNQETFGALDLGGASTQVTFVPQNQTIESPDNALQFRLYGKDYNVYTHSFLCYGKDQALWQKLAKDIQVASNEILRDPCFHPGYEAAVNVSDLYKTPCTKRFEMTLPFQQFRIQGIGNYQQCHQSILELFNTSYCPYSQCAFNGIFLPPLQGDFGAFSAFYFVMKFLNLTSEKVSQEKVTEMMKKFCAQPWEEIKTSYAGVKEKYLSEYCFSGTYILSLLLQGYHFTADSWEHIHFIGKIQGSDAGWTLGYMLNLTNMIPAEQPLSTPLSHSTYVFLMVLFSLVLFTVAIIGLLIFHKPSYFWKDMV

[2] = target: T2, human CD39 mutant 18 (human) (UniProt P49961)
T2 sequence: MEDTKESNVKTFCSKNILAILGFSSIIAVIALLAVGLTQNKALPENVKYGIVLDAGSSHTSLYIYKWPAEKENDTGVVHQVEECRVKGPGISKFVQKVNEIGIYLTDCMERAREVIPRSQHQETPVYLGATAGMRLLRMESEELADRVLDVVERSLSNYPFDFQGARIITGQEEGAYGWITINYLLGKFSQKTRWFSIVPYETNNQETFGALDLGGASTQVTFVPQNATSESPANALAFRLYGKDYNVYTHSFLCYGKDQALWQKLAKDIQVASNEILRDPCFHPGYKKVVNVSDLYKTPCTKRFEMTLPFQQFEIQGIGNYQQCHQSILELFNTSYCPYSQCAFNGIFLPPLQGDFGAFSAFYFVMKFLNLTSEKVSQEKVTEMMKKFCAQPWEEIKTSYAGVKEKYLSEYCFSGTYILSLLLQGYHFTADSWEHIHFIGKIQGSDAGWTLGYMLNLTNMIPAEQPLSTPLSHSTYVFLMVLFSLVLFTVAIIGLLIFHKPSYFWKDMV

[3] = target: T3, human CD39 mutant 6 (human) (UniProt P49961)
T3 sequence: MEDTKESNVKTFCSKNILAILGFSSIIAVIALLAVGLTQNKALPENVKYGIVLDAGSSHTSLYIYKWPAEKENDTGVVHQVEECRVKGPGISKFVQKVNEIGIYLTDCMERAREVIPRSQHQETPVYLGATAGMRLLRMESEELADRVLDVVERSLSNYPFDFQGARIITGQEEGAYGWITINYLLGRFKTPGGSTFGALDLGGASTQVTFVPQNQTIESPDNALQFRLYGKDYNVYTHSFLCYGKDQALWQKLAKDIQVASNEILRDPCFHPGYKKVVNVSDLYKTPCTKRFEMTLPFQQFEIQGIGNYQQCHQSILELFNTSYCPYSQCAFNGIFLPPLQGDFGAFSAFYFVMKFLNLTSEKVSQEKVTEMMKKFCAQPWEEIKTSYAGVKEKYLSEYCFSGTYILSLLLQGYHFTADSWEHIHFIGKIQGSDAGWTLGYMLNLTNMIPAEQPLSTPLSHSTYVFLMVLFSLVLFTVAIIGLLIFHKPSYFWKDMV

[4] = target: T4, human CD39 mutant 3 (human) (UniProt P49961)
T4 sequence: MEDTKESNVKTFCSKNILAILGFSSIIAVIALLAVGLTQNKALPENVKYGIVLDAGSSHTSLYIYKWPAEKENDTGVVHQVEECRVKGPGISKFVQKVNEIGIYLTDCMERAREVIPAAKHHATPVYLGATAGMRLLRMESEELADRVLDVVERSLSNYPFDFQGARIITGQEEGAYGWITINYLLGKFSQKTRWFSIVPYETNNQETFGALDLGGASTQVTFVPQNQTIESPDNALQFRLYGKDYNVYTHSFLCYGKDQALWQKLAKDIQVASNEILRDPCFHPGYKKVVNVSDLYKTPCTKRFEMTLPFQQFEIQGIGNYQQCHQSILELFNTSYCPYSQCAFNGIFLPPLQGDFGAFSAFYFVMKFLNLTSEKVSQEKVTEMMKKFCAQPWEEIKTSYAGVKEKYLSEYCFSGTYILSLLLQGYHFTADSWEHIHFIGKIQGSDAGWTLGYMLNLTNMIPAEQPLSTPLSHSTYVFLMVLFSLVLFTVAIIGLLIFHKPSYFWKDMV

[5] = target: T5, human CD39 mutant 10A (human) (UniProt P49961)
T5 sequence: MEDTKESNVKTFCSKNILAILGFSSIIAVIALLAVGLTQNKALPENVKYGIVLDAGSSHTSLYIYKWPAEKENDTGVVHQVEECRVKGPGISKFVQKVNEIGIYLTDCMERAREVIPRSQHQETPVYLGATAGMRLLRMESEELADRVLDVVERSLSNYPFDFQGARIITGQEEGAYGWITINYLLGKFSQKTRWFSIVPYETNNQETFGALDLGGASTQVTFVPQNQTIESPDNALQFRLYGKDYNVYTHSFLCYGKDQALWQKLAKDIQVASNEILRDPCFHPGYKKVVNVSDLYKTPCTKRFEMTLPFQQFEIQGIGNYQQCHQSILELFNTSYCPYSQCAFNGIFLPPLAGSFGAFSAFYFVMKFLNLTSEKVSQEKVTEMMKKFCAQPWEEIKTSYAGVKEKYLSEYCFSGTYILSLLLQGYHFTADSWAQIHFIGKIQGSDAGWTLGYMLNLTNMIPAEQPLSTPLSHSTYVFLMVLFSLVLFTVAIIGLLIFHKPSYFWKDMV

Measured: binding

B1: antibody I-399 (antibody, V domains shown)
VH: PVQLQQPGAEVVMPGASVKLSCKASGYTFTSFWMNWMRQRPGQGLEWIGEIDPSDFYTNSNQRFKGKATLTVDKSSSTAYMQLSSLTSEDSAVYFCARGDFGWYFDVWGTGTSVTVSS
VL: EIVLTQSPTTMTSSPGEKITFTCSASSSINSNYLHWYQQKPGFSPKLLIYRTSNLASGVPTRFSGSGSGTSYSLTIGTMEAEDVATYYCQQGSSLPRTFGGGTKLEIK
binds: all assays above
